Measurements reported in PubChem BioAssay AID588590 (National Center for Advancing Translational Sciences (NCATS), 2011).
Hit rate of the full screen: of about 390,000 compounds, about 4,000 (1%) were called active. This list was built around the results that the source calls inconclusive (neither active nor inactive); the mix of calls is not that of the screen. Calls come from the whole dose curve; as a rule, active = well fitted inhibition curve with a large enough effect; inconclusive = small, poorly fitted or top-dose-only effect, or another doubt; inactive = no such curve, though single readings can be large or run the other way. Potencies of inconclusive entries are doubtful fits and often do not repeat.

Amino acid sequences for entries named in this document (tags omitted). A change or cut given only in a name is not applied to a line headed by its entry.
UniProt Q9UNA4: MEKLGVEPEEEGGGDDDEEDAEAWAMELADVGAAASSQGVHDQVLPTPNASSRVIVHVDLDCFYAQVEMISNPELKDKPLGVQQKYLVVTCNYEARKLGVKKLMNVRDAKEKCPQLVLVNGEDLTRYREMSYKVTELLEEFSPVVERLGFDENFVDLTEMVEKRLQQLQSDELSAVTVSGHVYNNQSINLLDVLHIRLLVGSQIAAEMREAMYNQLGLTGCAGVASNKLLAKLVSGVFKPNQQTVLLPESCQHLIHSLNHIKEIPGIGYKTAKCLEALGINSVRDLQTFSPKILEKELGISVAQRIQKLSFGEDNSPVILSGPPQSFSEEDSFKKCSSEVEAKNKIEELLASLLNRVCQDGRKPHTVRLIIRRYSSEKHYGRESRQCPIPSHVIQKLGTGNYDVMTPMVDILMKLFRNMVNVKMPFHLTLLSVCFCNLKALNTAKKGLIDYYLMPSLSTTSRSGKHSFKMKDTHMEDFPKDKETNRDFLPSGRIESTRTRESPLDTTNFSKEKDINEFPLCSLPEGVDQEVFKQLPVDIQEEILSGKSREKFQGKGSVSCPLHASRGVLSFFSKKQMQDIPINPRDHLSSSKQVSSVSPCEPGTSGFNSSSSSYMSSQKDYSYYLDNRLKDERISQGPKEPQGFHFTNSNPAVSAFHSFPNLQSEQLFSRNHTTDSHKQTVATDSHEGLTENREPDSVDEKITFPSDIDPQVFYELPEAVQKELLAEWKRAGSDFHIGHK

target: DNA polymerase iota (Homo sapiens) (UniProt Q9UNA4); experiment: qHTS for Inhibitors of Polymerase Iota; conditions: Pol iota fluorescent replication assay, 10 min; series mostly up to 115 µM
In short: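 Pol iota at 10 nM preincubated 15 min with compounds at room temperature; reaction started with fluorescent substrate, 50 nM final. Fluorescence read kinetically at 0 and 10 min; buffer-only wells as negative control.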
Potency is the fitted concentration of half-maximal effect.

SMILES | Potency
O=C(Nc1nccs1)c1cnccn1 | inconclusive: 17.8 µM [inhibitor, full curve, poor fit]
CC12CCC(=O)N1C(C(=O)Nc1ccc(Br)cc1Cl)CS2 (stereo unspecified) | inconclusive: 89.1 µM [inhibitor, single point]
CC12CCC(=O)C=C1CCCC2=O (stereo unspecified) | inactive
CCCCNC(=O)c1cccc(-n2c(C)nc3cccnc32)c1 | inactive
Cc1ccc(-c2nnc(COC(=O)c3ccco3)o2)cc1 | inconclusive: 50.1 µM [inhibitor, partial curve]
CCOC(=O)CSc1nc2c(sc(=S)n2-c2ccccc2)c(=O)n1-c1ccc(OC)cc1OC | inconclusive: 35.5 µM [inhibitor, partial curve, poor fit]
CCC(C)[C@H](NC(=O)N1CCCCCC1)C(=O)O (stereo partly specified) | inconclusive: 89.1 µM [inhibitor, partial curve, poor fit]
O=C1OC(c2cccs2)=N/C1=C\c1ccc(-c2ccccc2Cl)o1 | inconclusive: 22.4 µM [inhibitor, partial curve]
CC(C)CCNC(=O)c1cnc2sc(N3CCCCC3)nn2c1=O | inactive
CCOC(=O)c1c(NC(=O)C2=C(C)NC(=S)NC2c2ccc(F)cc2)sc(C)c1C (stereo unspecified) | inconclusive: 12.6 µM [inhibitor, partial curve, poor fit]
COc1cc(C(=O)OCC(=O)N(CC(C)C)C2CCS(=O)(=O)C2)cc(OC)c1C (stereo unspecified) | inconclusive: 50.1 µM [inhibitor, single point]
O=C(CCCC(=O)N(CC(=O)NC1CCCCC1)c1ccc(F)cc1)Nc1ccccn1 | inconclusive: 79.4 µM [inhibitor, single point]
N#C/C(=C(/O)COC(=O)c1ccc(C#N)cc1)c1nc2ccccc2s1 | inconclusive: 39.8 µM [inhibitor, single point]
CCOc1ccc(CNS(=O)(=O)c2ccc(-c3coc(C)n3)cc2)cc1 | inconclusive: 89.1 µM [inhibitor, partial curve, poor fit]
CCC(C)Sc1cccc(-c2nc3cnccn3c2NC2CCCCC2)c1 (stereo unspecified) | inconclusive: 17.8 µM [inhibitor, partial curve, poor fit]
CCOC(=O)c1cc(S(=O)(=O)N2CCN(c3ccccc3F)CC2)[nH]n1 | inactive
CCc1ccc(NCCC(=O)c2ccc(Cl)cc2)cc1 | inactive
O=C(CCCN1C(=O)/C(=C/c2cccc(Br)c2)SC1=S)NCCCN1CCOCC1 | inconclusive: 79.4 µM [inhibitor, single point]
O=C(NC(=S)Nc1ccc(Cl)cn1)c1cc([N+](=O)[O-])ccc1N1CCOCC1 | inconclusive: 89.1 µM [inhibitor, single point]
Cc1nnc(SCC(=O)Nc2ccc(S(=O)(=O)N3CCCCC3)cc2)s1 | inactive
CN(C)Cc1c(O)ccc2c1O/C(=C\C=C\c1ccccc1)C2=O | inactive
Cc1nnc(NC(=O)CSc2ccc(-c3ccco3)nn2)s1 | inconclusive: 15.8 µM [inhibitor, full curve, poor fit]

Given field by field: entries from further up.
O=C(NC(=S)Nc1ccc(Cl)cn1)c1cc([N+](=O)[O-])ccc1N1CCOCC1
  Potency: inconclusive: 89.1 µM [inhibitor, single point]
Cc1nnc(SCC(=O)Nc2ccc(S(=O)(=O)N3CCCCC3)cc2)s1
  Potency: inactive

Next part.

SMILES | Potency
C/C(=N\NC(=O)c1cccc(O)c1)c1cccc(NC(=O)c2ccc(F)cc2)c1 | inactive
CC(/C=C/C1(O)C(C)CC(=O)CC1(C)C)OC1OC(CO)C(O)C(O)C1O (stereo unspecified) | active: 79.4 µM
Cc1ccc(NC2CCCN(C(=O)Cc3nonc3C)C2)cc1C (stereo unspecified) | inconclusive: 35.5 µM [inhibitor, partial curve, poor fit]
O=C(Nc1ccc(-c2ccc(N3CCCCC3)nn2)cc1)c1ccco1 | inconclusive: 44.7 µM [inhibitor, partial curve]
Cn1cc(S(=O)(=O)N2CCOCC2)cc1C(=O)Nc1ccc(Cl)c(C(F)(F)F)c1 | inactive
CC(=O)Nc1ccc(S(=O)(=O)Oc2cccc(/C=C3\SC(N)=NC3=O)c2)cc1 | inactive
Fc1cccc(Cl)c1CSc1ccc(-c2ccco2)nn1 | inconclusive: 28.2 µM [inhibitor, single point]
Cc1cc(C(=O)N/N=C2\CC(=O)c3ccccc32)c(C)n1-c1ccc(F)cc1 | inconclusive: 11.2 µM [inhibitor, full curve, poor fit]
O=C(O)c1cccc(N2C(=O)/C(=C/c3ccc(SCc4ccc(Cl)cc4)o3)SC2=S)c1 | inconclusive: 14.1 µM [inhibitor, full curve, poor fit]
Oc1ccc(/C=C/c2cc(O)cc(O)c2)cc1 | inconclusive: 44.7 µM [inhibitor, partial curve, poor fit]
O=C(N/N=C/c1cccc([N+](=O)[O-])c1)c1ccc(Br)cc1 | inconclusive: 39.8 µM [inhibitor, single point]
O=c1c2oc3ccccc3c2n(Cc2ccccc2F)c(=O)n1Cc1ccccc1 | inactive
C[n+]1c(/C=C/c2ccc(N)cc2)sc2ccccc21 | inconclusive: 50.1 µM [inhibitor, partial curve, poor fit]
O=C(NC(NC(=O)c1ccccc1)c1ccccc1)c1ccccc1 | inconclusive: 79.4 µM [inhibitor, full curve]
COc1ccccc1/C=C1/C(=O)N(c2ccccc2)N=C1C | inconclusive: 35.5 µM [inhibitor, partial curve, poor fit]
CCOc1ccc(-c2nc3scc(-c4cccs4)c3c(=O)[nH]2)cc1 | inactive
CCCn1c(C)cc(-c2csc(NC(=O)CCc3nc4ccccc4c(=O)[nH]3)n2)c1C | inconclusive: 28.2 µM [inhibitor, full curve]
CCOC(=O)c1cn2ccc(C)cc2n1 | inactive
CN(C)S(=O)(=O)c1ccc(N2CCCC2)c(C(=O)Nc2nc(-c3cc(F)ccc3F)cs2)c1 | inconclusive: 89.1 µM [inhibitor, single point]
COC(=O)CN(c1ccccc1)S(=O)(=O)c1ccc(F)cc1 | inconclusive: 39.8 µM [inhibitor, single point]
Cc1ccc(C)c(N2CCN(C(=O)c3cc(S(=O)(=O)N4CCCC4)cn3C)CC2)c1 | inconclusive: 56.2 µM [inhibitor, partial curve, poor fit]
CC(=O)NS(=O)(=O)c1ccc(NC(=O)c2ccc(S(=O)(=O)N3CCCC3)cc2)cc1 | inactive

As a working copy, 2 of the compounds above:
SMILES | Potency
COc1ccccc1/C=C1/C(=O)N(c2ccccc2)N=C1C | inconclusive: 35.5 µM [inhibitor, partial curve, poor fit]
CCOc1ccc(-c2nc3scc(-c4cccs4)c3c(=O)[nH]2)cc1 | inactive

The results go on.

SMILES | Potency
Cc1cc2oc(C(=O)N(Cc3ccccc3)C3CCS(=O)(=O)C3)cc(=O)c2cc1Cl (stereo unspecified) | inconclusive: 79.4 µM [inhibitor, single point]
O=C1NC[C@H](CC2CCCCC2)N(CCc2cccc(F)c2)C1=O | inconclusive: 8.91 µM [inhibitor, partial curve, poor fit]
Cc1ccc(C)c(S(=O)(=O)c2nnn3c2nc(Nc2ccc(F)c(Cl)c2)c2sccc23)c1 | inactive
CCSc1nc2c(c(=O)[nH]c(=O)n2C)n1CC(O)COc1ccc(Cl)cc1 (stereo unspecified) | inconclusive: 89.1 µM [inhibitor, single point]
CC1(c2ccco2)NC(=O)NC1=O (stereo unspecified) | inconclusive: 28.2 µM [inhibitor, single point]
O=C(/N=C1\NC(=O)C(F)(C(F)(F)F)S1)NC1CCCCC1 (stereo unspecified) | inconclusive: 25.1 µM [inhibitor, partial curve]
NS(=O)(=O)c1ccc(NC(=O)c2nc(S(=O)(=O)Cc3ccccc3F)ncc2Cl)cc1 | inactive
O=C(CSc1nc2ncccc2[nH]1)Nc1ccccc1-c1ccccc1 | inactive
COc1ccc(OC)c(NC(=O)COc2coc(CN3CCc4ccccc43)cc2=O)c1 | inconclusive: 56.2 µM [inhibitor, partial curve, poor fit]
COc1cccc(CNc2nc(SC)ncc2CO)c1 | inconclusive: 89.1 µM [inhibitor, single point]
N#Cc1cc(-c2ccccc2)nn1-c1ccccc1 | inconclusive: 25.1 µM [inhibitor, partial curve, poor fit]
CSc1ccc(CNC(=O)c2cc3c(=O)n(Cc4ccco4)ccc3nc2C)cc1 | inconclusive: 17.8 µM [inhibitor, partial curve, poor fit]
COc1ccc(CC(=O)Nc2nc3ccccc3[nH]2)cc1 | inactive
COc1ccc(NC(=O)CSc2nnc(C3CC3)n2C)cc1S(=O)(=O)N1CCOCC1 | inconclusive: 44.7 µM [inhibitor, partial curve, poor fit]
Cc1ccc(-c2cc(C(=O)NCc3ccccc3)c3c(-c4ccc(C)cc4)[nH]nc3n2)cc1 | inactive
CCC(C)[C@H](NC(=O)[C@@H]1Cc2c([nH]c3ccccc23)C2c3ccccc3C(=O)N21)C(=O)N1CCC[C@@H]1C(=O)O (stereo partly specified) | inactive
Cc1cc(C)[n+]2[nH]c(N)c(N=Nc3ccccc3)c2n1 | inconclusive: 35.5 µM [inhibitor, single point]
Cc1ncc(C(=O)O)c(C(=O)O)c1N | inconclusive: 31.6 µM [inhibitor, full curve, poor fit]
O=S(=O)(CCN1CCCCC1)Oc1ccc(Cl)cc1Cl | inconclusive: 4.47 µM [inhibitor, partial curve, poor fit]
CN1CCN(CCCN2c3ccccc3Sc3ccc(C(F)(F)F)cc32)CC1 | inconclusive: 12.6 µM [inhibitor, full curve, poor fit]
CCOc1cc(/C=C2\SC(=Nc3ccc(CC)cc3)NC2=O)ccc1OCC(=O)O | inconclusive: 15.8 µM [inhibitor, partial curve, poor fit]
O=C(CSc1nnc(-c2cccc(S(=O)(=O)N3CCCC3)c2)n1-c1ccccc1)Nc1ccc(C(=O)O)cc1 | inconclusive: 89.1 µM [inhibitor, single point]
